Patent publication US20200216863A1, “Use of renewable deep eutectic solvents in a one-pot process for a biomass” (National Technology & Engineering Solutions of Sandia, LLC, priority 2019, published 2020)

Test: Degradation compounds formed during DES pretreatment (HPLC, LC-MSD)
Details: corn stover pretreatment

O=Cc1ccc(CO)o1 [HMF, hydroxymethylfurfural]
concentration formed during DES pretreatment: 14.9 mg/L

O=Cc1ccco1 [furfural]
concentration formed during DES pretreatment: 36.4 mg/L
